# Reference: paper PMC5996148
# The list shows a part of the results. For some assays here: The exact form of the protein is not confirmed.
# What was measured:
# Test in all cases: protein microarray (ProtoArray v5.0), streptavidin-Alexa Fluor 647
# Conditions in all cases: 3'-biotin; 20 mM Tris (pH 7.5), 5 mM MgCl2, 100 mM KCl, 0.1% Tween-20, A/T-rich and random oligonucleotide blockers; temperature not stated; high values mean tight binding
# [1] = target: T1, LIMS2 (UniProt Q7Z4I7)
# T1 sequence: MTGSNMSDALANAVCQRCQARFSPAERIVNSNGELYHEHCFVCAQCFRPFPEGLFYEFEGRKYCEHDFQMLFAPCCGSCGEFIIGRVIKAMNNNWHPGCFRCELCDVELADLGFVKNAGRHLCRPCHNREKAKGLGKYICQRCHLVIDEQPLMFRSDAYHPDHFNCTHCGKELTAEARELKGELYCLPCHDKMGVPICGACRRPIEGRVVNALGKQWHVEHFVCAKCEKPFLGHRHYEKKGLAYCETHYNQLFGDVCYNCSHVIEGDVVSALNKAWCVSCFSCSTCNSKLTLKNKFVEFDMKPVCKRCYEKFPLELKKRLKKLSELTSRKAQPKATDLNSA
# [2] = system: LMAN1L (human)
# [3] = system: LMX1A (human)
# [4] = system: LOC113386 (human)
# [5] = system: LOC144631 (human)
# [6] = system: LOC145846 (human)
# [7] = system: LOC153684 protein (human)
# [8] = system: LOC170425 (human)
# [9] = system: LOC201725 (human)
# [10] = system: LOC202459 (human)
# [11] = system: LOC284422 (human)
# [12] = system: LOC285577 (human)
# [13] = system: LOC388589 (human)
# [14] = system: LOC400600 (human)
# [15] = system: LOC401270 (human)
# [16] = system: LOC401607 (human)
# [17] = system: LOC442582 (human)
# [18] = system: LOC51233 (human)
# [19] = system: LOC51252 (human)
# [20] = system: LOC541471 (human)
sequence,measurement,setting,value
GGTGACAGGGGTATGGGGAGGGG [G4-2 biotinylated (Ct1)],binding signal,[1],3.87 z-score
same,binding signal,[2],-0.39 z-score
same,binding signal,[3],-0.395 z-score
same,binding signal,[4],-0.387 z-score
same,binding signal,[5],-0.369 z-score
same,binding signal,[6],-0.374 z-score
same,binding signal,[7],6.45 z-score
same,binding signal,[8],-0.374 z-score
same,binding signal,[9],-0.397 z-score
same,binding signal,[10],-0.38 z-score
same,binding signal,[11],-0.359 z-score
same,binding signal,[12],-0.377 z-score
same,binding signal,[13],-0.378 z-score
same,binding signal,[14],-0.371 z-score
same,binding signal,[15],-0.369 z-score
same,binding signal,[16],-0.369 z-score
same,binding signal,[17],-0.39 z-score
same,binding signal,[18],-0.39 z-score
same,binding signal,[19],-0.375 z-score
same,binding signal,[20],-0.383 z-score

# Random excerpt: 2 entries already listed.
sequence,measurement,setting,value
GGTGACAGGGGTATGGGGAGGGG [G4-2 biotinylated (Ct1)],binding signal,[17],-0.39 z-score
same,binding signal,[4],-0.387 z-score
